{"source": "PubChem BioAssay AID1347075", "about": "(National Center for Advancing Translational Sciences (NCATS), 2019)", "note": "Among all 400,000 compounds or so, about 5,500 (1.4%) were called active. Inconclusive means that the source gave no clear call. Such entries were picked first, then a sample of the others. Calls follow the shape of the dose curve; as a rule, active = well fitted cell-killing curve with a large enough effect; inconclusive = small, poorly fitted or top-dose-only effect, or effect the other way; inactive = flat fitted curve, though single readings scatter. A potency beside an inconclusive call is a rough fit, not a confirmed value. % is scaled to controls: 0 for no effect and ±100 for the full control effect; potency is read from the fitted curve at half-maximal effect.", "data": [{"test": "qHTS assay for MDR1-selective chemotherapeutics: Primary screen using the parental adenocarcinoma cell KB-3-1; also: nearly all actives have a fitted effect of over 60% in size", "conditions": "KB-3-1 viability, CellTiter-Glo ATP luminescence, 72 h; activity change, negative = cytotoxic: at 46.1 µM (top of the series)", "how_it_was_run": "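Screening of KB-3-1 cells (DMEM, 10% FBS, phenol-red free) ran from lowest to highest compound concentration; after 72 h at 37 °C viability was read luminescently and curves fitted.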", "values": [{"smiles": "CCc1noc(-c2ccc(N3CCCCC3)c([N+](=O)[O-])c2)n1", "activity change, negative = cytotoxic": "inactive: -4.72%"}, {"smiles": "CC(C)(C)OC(=O)CNC(=O)c1[nH]cnc1C(=O)Nc1ccc(Cl)cc1", "Potency": "inconclusive: 29.1 µM [cytotoxic, single point]"}, {"smiles": "O=C(COC(=O)/C=C/c1ccc(Cl)cc1Cl)Nc1cccc(S(=O)(=O)NC2=NCCC2)c1", "Potency": "inconclusive: 29.1 µM [cytotoxic, single point]"}, {"smiles": "COc1ccc(Cc2nnc(SCC(=O)Nc3ncc(C)s3)o2)cc1", "Potency": "inconclusive: 1.84 µM [rising, full curve, poor fit]"}, {"smiles": "Cc1ccccc1C(=O)Nc1ccc(N2CCCC2)cc1", "Potency": "inconclusive: 29.1 µM [cytotoxic, single point]"}, {"smiles": "COc1cc(/C=C/C(=O)NC(=O)c2ccccc2O)ccc1OC(C)=O", "activity change, negative = cytotoxic": "inactive: 0%"}, {"smiles": "Nc1nc(-c2ccccc2)cn1/N=C/c1ccccc1", "activity change, negative = cytotoxic": "inactive: -2.42%"}, {"smiles": "COc1ccc(N2CCN(C(=O)COC(=O)c3cccc(S(=O)(=O)Nc4cccc(C)c4)c3)CC2)cc1", "Potency": "inconclusive: 20.6 µM [cytotoxic, single point]"}, {"smiles": "COc1ccc(-c2csc(NC(C)c3nc4cc(C(=O)NCCCO)ccc4n3Cc3ccc(C)cc3)n2)cc1", "note": "(stereo not drawn)", "Potency": "inconclusive: 29.1 µM [cytotoxic, single point]"}, {"smiles": "COc1ccc(Cl)cc1C(=O)n1cnc2ccccc21", "Potency": "inconclusive: 29.1 µM [cytotoxic, single point]"}, {"smiles": "COC(=O)N1C(=O)[C@](Cc2ccccc2)(c2ccccc2)N1C(=O)OC", "activity change, negative = cytotoxic": "inactive: -2.1%"}, {"smiles": "CCOc1ccc(S(=O)(=O)Nc2ccc(F)cc2)c(C)c1C", "activity change, negative = cytotoxic": "inactive: -21.3%"}, {"smiles": "Cc1ccc(CN2C(=O)[C@H]3Cc4c([nH]c5ccccc45)C(C)(C)N3C2=O)cc1", "Potency": "inconclusive: 29.1 µM [cytotoxic, single point]"}, {"smiles": "COc1ccccc1-c1nnc(SCC(=O)c2ccc(F)cc2)n1-c1ccccc1", "Potency": "inconclusive: 18.4 µM [cytotoxic, single point]"}, {"smiles": "CC(C)(C)C(=O)NCCCc1nc2ccccc2n1CCCOc1ccc(Cl)cc1", "Potency": "inconclusive: 29.1 µM [cytotoxic, single point]"}, {"smiles": "Cc1cc(Cl)ccc1OCc1cc(=O)n2c3c(sc2n1)CCCC3", "activity change, negative = cytotoxic": "inactive: 3.56%"}, {"smiles": "O=C(COC(=O)C1c2ccccc2Oc2ccccc21)Nc1ccc2c(c1)OCO2", "Potency": "inconclusive: 23.1 µM [rising, partial curve, poor fit]"}, {"smiles": "O=C(NCC1CCCO1)NC1(C(F)(F)F)Oc2ccccc2O1", "note": "(stereo not drawn)", "Potency": "inconclusive: 18.4 µM [cytotoxic, single point]"}, {"smiles": "Cc1ccc(Cc2c(-c3ccc(C#N)cc3)nc3ccc(Br)cn23)cc1", "Potency": "inconclusive: 29.1 µM [cytotoxic, single point]"}, {"smiles": "COc1cccc(OCC(=O)Nc2nnc3n2CCS3)c1", "activity change, negative = cytotoxic": "inactive: 17.3%"}, {"smiles": "CCn1c(COc2cccc(C)c2C)nnc1SCC(=O)N1CCN(c2ccc(OC)cc2)CC1", "Potency": "active: 14.6 µM"}, {"smiles": "O=C(Nc1ccc(F)c(Cl)c1)c1ccc2sc([C@@H]3O[C@H](CO)[C@H](O)[C@H](O)[C@H]3O)nc2c1", "activity change, negative = cytotoxic": "inactive: 21%"}, {"smiles": "Cc1cccc(-n2ncc3c2CCCC3NC(=O)CCc2ccncc2)c1C", "note": "(stereo not drawn)", "Potency": "inconclusive: 7.31 µM [cytotoxic, partial curve]"}, {"smiles": "Cc1oc(=O)c(NC(=O)c2ccc(Cl)cc2)cc1C(=O)c1ccccc1", "Potency": "inconclusive: 29.1 µM [cytotoxic, single point]"}, {"smiles": "Cc1ccc(Nc2nc(N3CCOCC3)c3ccccc3n2)cc1", "Potency": "inconclusive: 23.1 µM [cytotoxic, partial curve, poor fit]"}, {"smiles": "CCC(C)NCCOc1cccc(Br)c1", "note": "(stereo not drawn)", "activity change, negative = cytotoxic": "inactive: 2.07%"}, {"smiles": "CCc1nc2ccc(C(=O)Nc3cccc(OC)c3)cn2c1N(CC)Cc1cccc(Br)c1", "Potency": "inconclusive: 29.1 µM [cytotoxic, single point]"}, {"smiles": "CCOC(=O)N1CCN(C(=O)CN(c2cc(C)ccc2OC)S(=O)(=O)c2ccc(C)cc2)CC1", "activity change, negative = cytotoxic": "inactive: 18.4%"}, {"smiles": "O=C(NC(=S)NNC(=O)[C@H]1C[C@@H]1c1ccccc1)c1ccc(F)cc1", "Potency": "inconclusive: 18.4 µM [cytotoxic, partial curve]"}, {"smiles": "O=[N+]([O-])c1ccc(/C=[N+](\\[O-])[C@@H]2CCCC[C@@H]2/[N+]([O-])=C/c2ccc([N+](=O)[O-])o2)o1", "Potency": "inconclusive: 29.1 µM [cytotoxic, single point]"}, {"smiles": "O=C(c1cc(-n2cnnc2)ccc1Cl)N1CCN(c2nc(-c3ccccc3)cs2)CC1", "Potency": "active: 20.6 µM"}, {"smiles": "Cc1ccc(Nc2nc(N)nc(-c3oc4ccccc4c3C)n2)cc1", "Potency": "active: 0.184 µM"}, {"smiles": "COc1cccc(S(=O)(=O)Nc2ccc(C(=O)N3CCOCC3)cc2)c1", "activity change, negative = cytotoxic": "inactive: -5.35%"}, {"smiles": "C=CC[C@H](CC(=O)N[C@H](CO)Cc1ccccc1)C(=O)N[C@@H](COC(=O)[C@@H](CC=C)CC(=O)OC(C)(C)C)Cc1c[nH]c2ccccc12", "Potency": "inconclusive: 25.9 µM [cytotoxic, single point]"}, {"smiles": "Cc1ccc(C(=O)N2CCN(C3c4cccc5cccc(c45)C3NS(=O)(=O)c3ccccc3)CC2)cc1", "note": "(stereo not drawn)", "Potency": "inconclusive: 20.6 µM [cytotoxic, single point]"}, {"smiles": "Cc1cccc(N2CCN(C(=O)c3ccc4c(c3)c(C)c(C)n4C)CC2C)c1", "note": "(stereo not drawn)", "Potency": "inactive"}, {"smiles": "Cc1ccc(NC(=O)COc2ccccc2C(N)=O)cc1S(=O)(=O)N1CCCCCC1", "Potency": "inconclusive: 9.2 µM [cytotoxic, partial curve, poor fit]"}, {"smiles": "O=C(c1ccccc1)c1ccc(-c2ccc(O)cc2)cc1", "Potency": "inconclusive: 29.1 µM [cytotoxic, single point]"}, {"smiles": "COc1nc(Nc2cccc(F)c2)nc(OC)n1", "Potency": "inconclusive: 20.6 µM [cytotoxic, single point]"}, {"smiles": "CCC(=O)N1CCC2(CC1)Oc1ccc(Cl)cc1C(=O)C21CC(c2ccc(Cl)cc2)=NO1", "note": "(stereo not drawn)", "activity change, negative = cytotoxic": "inactive: 12.1%"}, {"smiles": "C#CCSc1nc2ccccc2c(=O)n1CC=C", "Potency": "inconclusive: 9.2 µM [rising, partial curve]"}, {"smiles": "Cn1nc(C(F)(F)F)c(/C=N/OC(=O)c2ccccc2)c1Sc1ccc(Cl)cc1", "Potency": "inconclusive: 32.6 µM [cytotoxic, single point]"}, {"smiles": "Cc1nn(CC(=O)NCCCc2ccccc2)c(C)c1[N+](=O)[O-]", "activity change, negative = cytotoxic": "inactive: -0.705%"}]}]}
